Experimental data taken from the supplement of paper PMC10849652.
Some of the results follow.

Sequences of proteins named here, by UniProt entry; tags and fusion partners are left off. A change or cut given only in a name is not applied to a line headed by its entry.
UniProt P00747, whole entry, looked up: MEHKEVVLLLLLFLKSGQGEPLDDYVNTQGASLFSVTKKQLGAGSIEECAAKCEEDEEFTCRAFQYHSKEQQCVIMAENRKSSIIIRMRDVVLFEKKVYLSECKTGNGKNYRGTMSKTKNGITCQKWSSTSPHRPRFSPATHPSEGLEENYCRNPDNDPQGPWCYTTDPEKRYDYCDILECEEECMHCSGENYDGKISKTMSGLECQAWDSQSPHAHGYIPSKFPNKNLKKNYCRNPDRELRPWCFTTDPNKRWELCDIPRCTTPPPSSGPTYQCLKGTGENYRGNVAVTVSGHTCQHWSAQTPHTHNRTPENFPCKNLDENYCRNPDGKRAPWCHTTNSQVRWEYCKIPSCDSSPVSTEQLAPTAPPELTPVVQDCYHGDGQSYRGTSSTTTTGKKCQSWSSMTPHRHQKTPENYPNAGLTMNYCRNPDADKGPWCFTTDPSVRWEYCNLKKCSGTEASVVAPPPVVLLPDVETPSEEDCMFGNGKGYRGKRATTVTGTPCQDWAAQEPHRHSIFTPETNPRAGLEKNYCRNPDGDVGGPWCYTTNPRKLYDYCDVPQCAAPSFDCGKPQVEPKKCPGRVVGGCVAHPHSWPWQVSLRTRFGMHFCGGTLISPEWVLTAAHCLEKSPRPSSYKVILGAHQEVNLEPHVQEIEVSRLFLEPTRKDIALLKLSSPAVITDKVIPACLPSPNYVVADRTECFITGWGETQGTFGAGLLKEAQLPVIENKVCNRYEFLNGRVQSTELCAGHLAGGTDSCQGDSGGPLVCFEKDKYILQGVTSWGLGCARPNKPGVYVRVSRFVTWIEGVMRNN
UniProt Q15165: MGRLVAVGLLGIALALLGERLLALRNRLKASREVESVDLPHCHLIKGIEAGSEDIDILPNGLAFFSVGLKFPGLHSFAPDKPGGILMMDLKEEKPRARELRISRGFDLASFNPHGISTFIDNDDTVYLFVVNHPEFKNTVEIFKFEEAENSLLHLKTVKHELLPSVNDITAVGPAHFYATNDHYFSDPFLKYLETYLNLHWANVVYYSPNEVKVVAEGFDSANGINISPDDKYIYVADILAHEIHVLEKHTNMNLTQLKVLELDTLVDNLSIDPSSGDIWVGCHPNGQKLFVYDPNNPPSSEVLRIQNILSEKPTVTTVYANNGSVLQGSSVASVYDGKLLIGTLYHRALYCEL
UniProt P54098: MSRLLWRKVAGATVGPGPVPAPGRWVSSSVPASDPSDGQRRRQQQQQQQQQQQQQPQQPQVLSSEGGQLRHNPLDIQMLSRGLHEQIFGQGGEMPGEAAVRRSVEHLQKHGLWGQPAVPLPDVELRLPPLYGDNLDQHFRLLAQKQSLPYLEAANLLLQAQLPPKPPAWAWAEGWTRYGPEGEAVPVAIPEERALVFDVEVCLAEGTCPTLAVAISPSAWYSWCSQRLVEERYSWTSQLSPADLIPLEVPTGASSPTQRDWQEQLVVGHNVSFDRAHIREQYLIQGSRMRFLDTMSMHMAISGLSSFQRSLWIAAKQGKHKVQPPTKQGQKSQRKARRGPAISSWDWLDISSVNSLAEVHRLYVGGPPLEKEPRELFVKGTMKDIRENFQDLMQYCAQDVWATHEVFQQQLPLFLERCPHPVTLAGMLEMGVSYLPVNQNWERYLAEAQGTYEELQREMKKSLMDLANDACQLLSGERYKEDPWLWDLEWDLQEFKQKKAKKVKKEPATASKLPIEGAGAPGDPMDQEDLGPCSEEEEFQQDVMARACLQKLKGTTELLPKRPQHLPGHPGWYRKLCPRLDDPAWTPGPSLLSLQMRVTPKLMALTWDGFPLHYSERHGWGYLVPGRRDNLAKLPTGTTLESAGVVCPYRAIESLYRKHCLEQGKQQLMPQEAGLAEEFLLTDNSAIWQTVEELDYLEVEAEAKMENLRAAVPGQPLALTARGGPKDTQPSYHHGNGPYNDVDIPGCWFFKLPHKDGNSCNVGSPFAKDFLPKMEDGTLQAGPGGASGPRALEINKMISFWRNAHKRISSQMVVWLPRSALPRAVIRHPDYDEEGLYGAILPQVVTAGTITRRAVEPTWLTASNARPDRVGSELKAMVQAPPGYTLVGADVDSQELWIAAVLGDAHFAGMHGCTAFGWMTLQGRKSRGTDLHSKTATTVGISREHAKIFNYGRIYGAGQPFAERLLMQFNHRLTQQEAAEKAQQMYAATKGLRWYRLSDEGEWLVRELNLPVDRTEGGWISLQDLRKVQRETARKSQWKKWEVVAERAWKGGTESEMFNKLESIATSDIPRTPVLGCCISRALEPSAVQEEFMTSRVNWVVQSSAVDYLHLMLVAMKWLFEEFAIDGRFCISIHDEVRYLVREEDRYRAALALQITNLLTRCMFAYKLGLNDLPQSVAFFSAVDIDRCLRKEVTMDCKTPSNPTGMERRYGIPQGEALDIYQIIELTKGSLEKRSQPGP
UniProt P28340: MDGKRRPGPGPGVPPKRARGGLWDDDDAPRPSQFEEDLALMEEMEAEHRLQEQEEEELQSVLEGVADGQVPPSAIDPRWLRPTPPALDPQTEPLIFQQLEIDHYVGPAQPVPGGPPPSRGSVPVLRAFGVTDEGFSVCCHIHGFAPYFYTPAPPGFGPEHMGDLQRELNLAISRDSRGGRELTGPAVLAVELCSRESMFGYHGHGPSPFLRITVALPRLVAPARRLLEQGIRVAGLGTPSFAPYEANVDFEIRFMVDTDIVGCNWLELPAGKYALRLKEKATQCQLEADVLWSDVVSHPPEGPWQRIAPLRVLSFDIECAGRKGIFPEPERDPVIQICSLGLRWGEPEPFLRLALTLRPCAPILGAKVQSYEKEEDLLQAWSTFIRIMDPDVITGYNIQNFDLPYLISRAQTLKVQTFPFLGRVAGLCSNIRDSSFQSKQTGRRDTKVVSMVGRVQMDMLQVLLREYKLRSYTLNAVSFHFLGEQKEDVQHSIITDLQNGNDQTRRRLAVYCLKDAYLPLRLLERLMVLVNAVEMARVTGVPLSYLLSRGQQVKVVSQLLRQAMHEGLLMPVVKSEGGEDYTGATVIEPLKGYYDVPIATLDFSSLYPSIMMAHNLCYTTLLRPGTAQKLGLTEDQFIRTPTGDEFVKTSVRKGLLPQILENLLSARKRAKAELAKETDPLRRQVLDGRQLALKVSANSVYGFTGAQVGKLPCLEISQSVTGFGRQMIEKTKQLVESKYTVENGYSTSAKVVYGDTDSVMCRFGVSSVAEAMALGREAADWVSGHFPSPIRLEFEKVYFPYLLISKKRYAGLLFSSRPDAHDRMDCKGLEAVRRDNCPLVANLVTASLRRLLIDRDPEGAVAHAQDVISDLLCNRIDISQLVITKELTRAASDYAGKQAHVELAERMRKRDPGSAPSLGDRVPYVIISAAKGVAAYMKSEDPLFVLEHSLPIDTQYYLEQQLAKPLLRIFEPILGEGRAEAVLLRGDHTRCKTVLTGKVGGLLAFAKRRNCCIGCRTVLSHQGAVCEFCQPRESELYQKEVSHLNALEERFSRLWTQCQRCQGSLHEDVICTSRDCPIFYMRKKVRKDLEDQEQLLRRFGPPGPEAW
UniProt Q969H6: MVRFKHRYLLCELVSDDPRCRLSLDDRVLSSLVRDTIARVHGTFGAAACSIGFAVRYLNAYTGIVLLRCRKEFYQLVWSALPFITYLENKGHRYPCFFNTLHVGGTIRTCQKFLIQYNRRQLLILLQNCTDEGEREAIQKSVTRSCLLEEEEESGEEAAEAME
UniProt P0CAP2, whole entry, looked up: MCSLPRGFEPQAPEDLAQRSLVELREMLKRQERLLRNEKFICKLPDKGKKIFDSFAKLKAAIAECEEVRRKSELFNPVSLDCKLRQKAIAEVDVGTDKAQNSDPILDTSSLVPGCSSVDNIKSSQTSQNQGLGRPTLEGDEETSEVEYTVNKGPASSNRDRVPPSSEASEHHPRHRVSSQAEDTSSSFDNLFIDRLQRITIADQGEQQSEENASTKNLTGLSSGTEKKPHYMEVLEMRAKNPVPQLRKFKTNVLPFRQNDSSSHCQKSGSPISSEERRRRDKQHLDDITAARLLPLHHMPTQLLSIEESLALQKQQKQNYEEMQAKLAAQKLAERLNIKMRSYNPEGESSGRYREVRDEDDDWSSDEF
UniProt Q9NVU0: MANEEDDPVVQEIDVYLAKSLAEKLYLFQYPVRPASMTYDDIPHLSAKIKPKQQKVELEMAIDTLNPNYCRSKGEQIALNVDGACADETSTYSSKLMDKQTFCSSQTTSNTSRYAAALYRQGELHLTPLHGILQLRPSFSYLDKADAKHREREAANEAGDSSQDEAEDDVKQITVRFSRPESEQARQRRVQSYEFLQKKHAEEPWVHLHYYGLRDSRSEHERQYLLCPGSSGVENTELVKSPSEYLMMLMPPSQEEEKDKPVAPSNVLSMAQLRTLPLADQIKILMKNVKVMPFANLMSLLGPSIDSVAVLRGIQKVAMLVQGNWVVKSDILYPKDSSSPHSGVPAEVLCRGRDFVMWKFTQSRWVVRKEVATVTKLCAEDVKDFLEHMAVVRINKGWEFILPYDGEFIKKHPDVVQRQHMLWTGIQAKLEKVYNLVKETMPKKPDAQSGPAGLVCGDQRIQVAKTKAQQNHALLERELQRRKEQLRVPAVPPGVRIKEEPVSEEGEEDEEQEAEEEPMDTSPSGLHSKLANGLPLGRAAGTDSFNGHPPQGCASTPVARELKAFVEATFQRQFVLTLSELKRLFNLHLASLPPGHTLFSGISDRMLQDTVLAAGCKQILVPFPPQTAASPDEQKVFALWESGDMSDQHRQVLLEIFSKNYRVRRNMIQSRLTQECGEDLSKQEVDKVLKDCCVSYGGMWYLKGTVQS
UniProt Q9H2U2: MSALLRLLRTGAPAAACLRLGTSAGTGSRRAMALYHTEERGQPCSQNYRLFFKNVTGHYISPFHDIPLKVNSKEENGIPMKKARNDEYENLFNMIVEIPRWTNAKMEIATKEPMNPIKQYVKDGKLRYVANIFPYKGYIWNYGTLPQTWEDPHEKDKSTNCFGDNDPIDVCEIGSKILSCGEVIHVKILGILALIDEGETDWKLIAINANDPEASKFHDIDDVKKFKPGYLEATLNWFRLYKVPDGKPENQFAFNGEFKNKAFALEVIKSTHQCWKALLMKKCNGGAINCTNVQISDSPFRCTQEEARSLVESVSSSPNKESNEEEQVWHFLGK
UniProt Q9H9Y6, whole entry, looked up: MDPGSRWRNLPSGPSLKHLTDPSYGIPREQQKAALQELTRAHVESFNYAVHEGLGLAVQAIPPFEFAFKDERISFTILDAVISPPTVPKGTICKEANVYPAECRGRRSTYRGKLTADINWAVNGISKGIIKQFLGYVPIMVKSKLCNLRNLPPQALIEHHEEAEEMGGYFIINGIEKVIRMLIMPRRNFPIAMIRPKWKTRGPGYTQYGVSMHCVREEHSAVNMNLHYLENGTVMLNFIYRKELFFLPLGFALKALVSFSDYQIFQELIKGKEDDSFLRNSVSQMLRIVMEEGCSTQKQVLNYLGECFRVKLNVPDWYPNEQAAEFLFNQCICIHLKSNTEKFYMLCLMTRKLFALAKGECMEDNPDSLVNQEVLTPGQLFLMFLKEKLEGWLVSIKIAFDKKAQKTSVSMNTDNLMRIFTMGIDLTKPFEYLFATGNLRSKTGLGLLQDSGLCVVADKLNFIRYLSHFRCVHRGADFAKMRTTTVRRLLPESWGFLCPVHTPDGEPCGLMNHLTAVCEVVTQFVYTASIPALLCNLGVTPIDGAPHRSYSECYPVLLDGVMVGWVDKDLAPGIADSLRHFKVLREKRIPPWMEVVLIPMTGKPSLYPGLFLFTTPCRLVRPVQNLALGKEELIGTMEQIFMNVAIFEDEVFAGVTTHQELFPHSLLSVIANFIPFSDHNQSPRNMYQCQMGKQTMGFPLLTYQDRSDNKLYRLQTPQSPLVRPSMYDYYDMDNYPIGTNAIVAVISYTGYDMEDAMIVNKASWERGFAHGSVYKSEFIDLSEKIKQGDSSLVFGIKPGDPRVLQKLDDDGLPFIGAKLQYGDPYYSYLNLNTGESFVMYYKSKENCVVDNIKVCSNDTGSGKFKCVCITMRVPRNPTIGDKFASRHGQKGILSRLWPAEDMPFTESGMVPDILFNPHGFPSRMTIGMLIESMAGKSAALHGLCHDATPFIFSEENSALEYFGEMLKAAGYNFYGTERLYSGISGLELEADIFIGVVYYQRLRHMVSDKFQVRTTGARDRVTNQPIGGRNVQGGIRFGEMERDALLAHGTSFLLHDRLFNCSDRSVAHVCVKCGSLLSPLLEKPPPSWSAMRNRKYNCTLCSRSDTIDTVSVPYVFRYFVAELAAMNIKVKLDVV
UniProt Q15126: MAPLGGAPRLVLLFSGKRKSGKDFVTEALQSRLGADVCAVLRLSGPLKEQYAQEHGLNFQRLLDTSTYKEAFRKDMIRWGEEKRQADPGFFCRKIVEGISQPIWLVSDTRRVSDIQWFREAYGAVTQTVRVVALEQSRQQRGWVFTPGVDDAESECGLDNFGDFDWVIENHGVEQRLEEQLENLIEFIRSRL

Tests used:
Test in all cases: log2 fold change, soluble protein after heating vs DMSO (PISA); higher = thermal stabilisation; K562 lysate, 10 uM; active = over 0.2 and 3.5 SD of the protein, either way, in both replicates (recomputed)
erlotinib = compound: C#Cc1cccc(Nc2ncnc3cc(OCCOC)c(OCCOC)cc23)c1 [erlotinib]
Outline: (§1)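 K562 pellets were dounce-homogenised in PBS pH 7.4 with 1 mM MgCl2, and the crude extract at 1 mg/mL protein was treated with 10 μM compound for 30 min. Aliquots were heated for 3 min across 48°C-58°C, pooled, and brought to 0.5% NP-40 at 4°C; soluble protein was the supernatant after 21,000xg for 90 min. Soluble protein was quantified by TMTpro 16plex LC-MS/MS with channel sums equalised, and reported as log2 fold change in thermal stability against DMSO controls, with values from duplicates.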

[1] = compound: C/C(=N\NC(=O)C1=CC(=CC=C1)S(=O)(=O)N2CCOCC2)/C3=C(C=CC(=C3)Cl)O
Outline: as §1

[2] = compound: C1=CC(=CC=C1C2=NC3=C(N2)C=C(C=C3)C(=O)N)OC4=CC=C(C=C4)Cl
Outline: as §1

[3] = compound: C1=CC2=C(C=CC(=C2)/C=C\3/C(=O)NC(=NCC4=CC=CS4)S3)N=C1
Outline: as §1

[4] = compound: C1=CC2=NC=CN=C2C=C1/C=C/3\C(=O)NC(=O)S3
Outline: as §1

[5] = compound: C1=CC=C(C=C1)C2=NC(=C(N2)C3=CC=NC=C3)C4=CC(=C(C=C4)Cl)O
Outline: as §1

[6] = compound: C1=CC=C2C(=C1)C3=NNC4=CC=CC(=C43)C2=O
Outline: as §1

[7] = compound: C1CCN(C1)C(=O)NC2=CC=CC(=C2)NC3=NC=C(C(=N3)NCCC4=CN=CN4)Br
Outline: as §1

[8] = compound: C1CN(CCC1(CC2=CC=C(C=C2)Cl)N)C3=NC=NC4=C3C=CN4
Outline: as §1

IRAK-1-4 Inhibitor I = compound: C1COCCN1CCN2C3=CC=CC=C3N=C2NC(=O)C4=CC(=CC=C4)[N+](=O)[O-] [IRAK-1-4 Inhibitor I]
Outline: as §1

Measured: log2 fold change

POLE2 (UniProt P56282)
inactive: erlotinib 0.019 | [1] -0.015 | [2] 0.004 | [3] -0.04 | [4] 0.031 | [5] -0.171 | [6] -0.03 | [7] -0.083 | [8] 0.017 | IRAK-1-4 Inhibitor I 0.029

PLG (UniProt P00747)
inactive: erlotinib 0.047 | [1] -0.501 | [2] 0.098 | [3] -0.04 | [4] -0.007 | [5] -0.025 | [6] 0.041 | [7] -0.089 | [8] -0.005 | IRAK-1-4 Inhibitor I -0.003

POLR3A (UniProt O14802)
inactive: erlotinib -0.007 | [1] -0.046 | [2] -0.012 | [3] 0.013 | [4] -0.001 | [5] 0.005 | [6] 0.007 | [7] -0.02 | [8] -0.027 | IRAK-1-4 Inhibitor I -0.008

PPFIA1 (UniProt Q13136)
inactive: erlotinib -0.035 | [1] 0.002 | [2] 0.02 | [3] 0.011 | [4] -0.017 | [5] -0.035 | [6] -0.048 | [7] 0.036 | [8] 0.015 | IRAK-1-4 Inhibitor I -0.021

POLA2 (UniProt Q14181)
inactive: erlotinib -0.004 | [1] 0.044 | [2] 0.037 | [3] -0.015 | [4] -0.019 | [5] 0.002 | [6] 0.001 | [7] -0.02 | [8] -0.003 | IRAK-1-4 Inhibitor I 0.002

PPA1 (UniProt Q15181)
inactive: erlotinib -0.022 | [1] -0.055 | [2] 0.012 | [3] -0.022 | [4] -0.009 | [5] 0.009 | [6] -0.005 | [7] 0.025 | [8] 0.018 | IRAK-1-4 Inhibitor I 0.008

PON2 (UniProt Q15165)
inactive: erlotinib 0.024 | [1] 0.01 | [2] 0.005 | [3] -0.01 | [4] 0.114 | [5] -0.02 | [6] 0.017 | [7] -0.006 | [8] 0.005 | IRAK-1-4 Inhibitor I -0.019

POLG (UniProt P54098)
inactive: erlotinib 0.064 | [1] 0.002 | [2] -0.039 | [3] -0.128 | [4] -0.094 | [5] -0.005 | [6] 0.054 | [7] -0.025 | [8] -0.057 | IRAK-1-4 Inhibitor I -0.039

PPFIA3 (UniProt O75145)
inactive: erlotinib 0.128 | [1] -0.304 | [2] -0.075 | [3] 0.007 | [4] -0.105 | [5] -0.026 | [6] 0.007 | IRAK-1-4 Inhibitor I -0.013

PPIC (UniProt P45877)
inactive: erlotinib 0.049 | [1] -0.042 | [2] 0.119 | [3] 0.025 | [4] 0.265 | [5] -0.032 | [6] 0.036 | IRAK-1-4 Inhibitor I 0.06

PLEKHO2 (UniProt Q8TD55)
inactive: erlotinib 0.188 | [1] 0.008 | [2] -0.023 | [3] 0.106 | [4] -0.06 | [5] 0.184 | [6] -0.014 | [7] -0.075 | [8] 0.186 | IRAK-1-4 Inhibitor I -0.004

POLD1 (UniProt P28340)
inactive: erlotinib 0.016 | [1] -0.05 | [2] 0.013 | [3] 0.008 | [4] -0.008 | [5] 0.015 | [6] -0.029 | [7] -0.006 | [8] 0.007 | IRAK-1-4 Inhibitor I -0.01

PNPO (UniProt Q9NVS9)
inactive: erlotinib 0.035 | [1] -0.005 | [2] 0.011 | [3] -0.026 | [4] 0.01 | [5] -0.013 | [6] 0.146 | [7] 0.054 | [8] -0.099 | IRAK-1-4 Inhibitor I 0.012

PNKD (UniProt Q8N490)
inactive: erlotinib -0.005 | [1] -0.102 | [2] 0.05 | [3] 0.116 | [4] 0.052 | [5] -0.005 | [6] -0.211 | [7] 0.01 | [8] 0.159 | IRAK-1-4 Inhibitor I 0.026

PPIE (UniProt Q9UNP9)
inactive: erlotinib 0.005 | [1] -0.022 | [2] 0.064 | [3] 0.031 | [4] -0.008 | [5] 0.001 | [6] -0.002 | [7] -0.025 | [8] 0.025 | IRAK-1-4 Inhibitor I -0.019

PPCDC (UniProt Q96CD2)
inactive: erlotinib -0.019 | [1] 0.075 | [2] 0.033 | [3] -0.115 | [4] 0.004 | [5] 0.002 | [6] -0.115 | [7] -0.05 | [8] 0.084 | IRAK-1-4 Inhibitor I 0.023

PLS1 (UniProt Q14651)
inactive: erlotinib 0.029 | [1] -0.086 | [2] 0.039 | [3] 0.023 | [4] 0.003 | [5] -0.004 | [6] 0.002 | [7] 0.002 | [8] 0 | IRAK-1-4 Inhibitor I 0.005

PNKD isoform 2 (UniProt Q8N490)
inactive: erlotinib -0.003 | [1] -0.072 | [2] 0.143 | [3] 0.036 | [4] -0.026 | [5] -0.062 | [6] 0.038 | [7] -0.082 | [8] 0.042 | IRAK-1-4 Inhibitor I 0

POP5 (UniProt Q969H6)
inactive: erlotinib -0.107 | [1] 0.021 | [2] -0.024 | [3] 0.016 | [4] 0.073 | [5] 0.024 | [6] 0.081 | [7] -0.046 | [8] -0.025 | IRAK-1-4 Inhibitor I -0.023

POLR2C (UniProt P19387)
inactive: erlotinib -0.03 | [1] 0.012 | [2] 0.015 | [3] 0.045 | [4] -0.017 | [5] -0.001 | [6] -0.051 | [7] 0.044 | [8] 0.024 | IRAK-1-4 Inhibitor I 0.002

PML (UniProt P29590)
inactive: erlotinib -0.014 | [1] 0.031 | [2] 0.012 | [3] 0.005 | [4] -0.019 | [5] -0.002 | [6] 0.019 | [7] -0.005 | [8] -0.029 | IRAK-1-4 Inhibitor I -0.023

POLR2L (UniProt P62875)
inactive: erlotinib 0.089 | [1] -0.061 | [2] -0.118 | [3] 0.05 | [4] 0.179 | [5] -0.011 | [6] -0.03 | [7] -0.053 | [8] 0.132 | IRAK-1-4 Inhibitor I 0.047

Random excerpt: 2 records from the list, in no set order.
POP5 (UniProt Q969H6)
inactive: erlotinib -0.107 | [1] 0.021 | [2] -0.024 | [3] 0.016 | [4] 0.073 | [5] 0.024 | [6] 0.081 | [7] -0.046 | [8] -0.025 | IRAK-1-4 Inhibitor I -0.023

POLR2C (UniProt P19387)
inactive: erlotinib -0.03 | [1] 0.012 | [2] 0.015 | [3] 0.045 | [4] -0.017 | [5] -0.001 | [6] -0.051 | [7] 0.044 | [8] 0.024 | IRAK-1-4 Inhibitor I 0.002

The listing continues:

PLS3 (UniProt P13797)
inactive: erlotinib 0.017 | [1] 0.019 | [2] 0.02 | [3] -0.014 | [4] 0.018 | [5] 0.012 | [6] 0.031 | [7] 0.013 | [8] 0.013 | IRAK-1-4 Inhibitor I 0.026

POLR2M (UniProt P0CAP2)
inactive: erlotinib 0.075 | [1] -0.053 | [2] 0.014 | [3] 0.034 | [4] -0.013 | [5] 0.027 | [6] -0.045 | [7] -0.182 | [8] -0.002 | IRAK-1-4 Inhibitor I 0.026

POLR3E (UniProt Q9NVU0)
inactive: erlotinib 0.003 | [1] 0.003 | [2] -0.007 | [3] 0.017 | [4] 0.005 | [5] 0.006 | [6] -0.001 | [7] -0.03 | [8] -0.007 | IRAK-1-4 Inhibitor I -0.016

POLR2B (UniProt P30876)
inactive: erlotinib 0.031 | [1] 0.019 | [2] -0.014 | [3] 0.012 | [4] -0.016 | [5] -0.008 | [6] -0.024 | [7] 0.002 | [8] -0.004 | IRAK-1-4 Inhibitor I -0.007

PPA2 (UniProt Q9H2U2)
inactive: erlotinib -0.016 | [1] 0.029 | [2] 0.025 | [3] -0.018 | [4] 0.003 | [5] 0.003 | [6] 0.009 | [7] -0.001 | [8] 0.004 | IRAK-1-4 Inhibitor I 0.004

POLR1B isoform 3 (UniProt Q9H9Y6)
inactive: erlotinib 0.03 | [1] -0.039 | [2] -0.029 | [3] 0.048 | [4] -0.006 | [5] 0.009 | [6] -0.046 | [7] -0.038 | [8] -0.025 | IRAK-1-4 Inhibitor I -0.009

PMVK (UniProt Q15126)
inactive: erlotinib -0.004 | [1] 0.024 | [2] -0.02 | [3] -0.033 | [4] 0.05 | [5] -0.005 | [6] -0.033 | [7] 0.084 | [8] -0.025 | IRAK-1-4 Inhibitor I -0.021

POLD2 (UniProt P49005)
inactive: erlotinib -0.019 | [1] 0.004 | [2] 0 | [3] 0.056 | [4] -0.016 | [5] 0.005 | [6] -0.019 | [7] -0.015 | [8] -0.005 | IRAK-1-4 Inhibitor I -0.024
